Laboratory results published in US7897142B2 (GE Healthcare AS, priority 2004, dated 2011).
Some peptides are written in HELM: one residue between dots, names in brackets for other building blocks, links after the first $.

Test: peptide synthesis
Settings: conjugation step

Substance	conjugation yield
Cys2-6; c[CH2CO-Lys(Cy7 bis-SO3)-Cys-Arg-Gly-Asp-Cys-Phe-Cys]-(PEG)n-NH2 (n=1)	36%
Cys2-6; c[CH2CO-Lys(Cy7 mono-SO3)-Cys-Arg-Gly-Asp-Cys-Phe-Cys]-(PEG)n-NH2(n=1)	38%
PEPTIDE1{[CH2CO].K.C.R.G.D.C.F.C.[PEG].[am]}|CHEM1{[Cy5bisSO3]}$PEPTIDE1,PEPTIDE1,1:R3-9:R3|PEPTIDE1,PEPTIDE1,3:R3-7:R3|PEPTIDE1,CHEM1,2:R3-1:R2$$$V2.0	37%
PEPTIDE1{[CH2CO].K.C.R.G.D.C.F.C.[PEG].[am]}|CHEM1{[Cy5monoSO3]}$PEPTIDE1,PEPTIDE1,1:R3-9:R3|PEPTIDE1,PEPTIDE1,3:R3-7:R3|PEPTIDE1,CHEM1,2:R3-1:R2$$$V2.0	34%
